Laboratory results taken from the supplement of paper PMC8007513.
This is one part of the list. Many values rest on one well or one pass, so single values are uncertain.

What follows are compounds tested on Saccharomyces cerevisiae BY4743 (assay: growth (OD600) with compound + IPBC relative to untreated control; higher = less growth inhibition). Conditions: compound concentration: 133 uM; IPBC concentration: 0.5 ug/ml; 20 h.
Experimental: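 NMCCC compounds (133 uM) combined with IPBC (0.5 ug/ml) against Saccharomyces cerevisiae BY4743 in YPD, 96-well plates. Growth was read as OD600 at 20 h and expressed as % of the untreated control. Single pass.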

Row | SMILES | growth [%]
1 | Cc1nc(C)c(CCC(=O)Nc2ccnn2Cc2ccc(C(F)(F)F)cc2)c(O)n1 + CCCCNC(=O)OCC#CI [3-iodo-2-propynyl butylcarbamate (IPBC)] | 116
2 | Cc1ccc(NC(=O)CN(C)C(C)c2ccc(-n3cncn3)cc2)cc1C (stereo unspecified) + CCCCNC(=O)OCC#CI [3-iodo-2-propynyl butylcarbamate (IPBC)] | 114
3 | Cc1cc(N2CCCC2)ccc1NC(=O)C(NS(=O)(=O)/C=C/c1ccccc1)C(C)C (stereo unspecified) + CCCCNC(=O)OCC#CI [3-iodo-2-propynyl butylcarbamate (IPBC)] | 113
4 | Cc1cc(C)cc(NC(=O)CSc2nc(O)c3c(n2)CCCC3)c1 + CCCCNC(=O)OCC#CI [3-iodo-2-propynyl butylcarbamate (IPBC)] | 80.7
5 | Cc1csc(SCC(=O)NC(C)C(c2ccccc2)N2CCOCC2)n1 (stereo unspecified) + CCCCNC(=O)OCC#CI [3-iodo-2-propynyl butylcarbamate (IPBC)] | 97.9
6 | CCCOC(=O)c1cccc(Nc2nc(C(=O)OCC)nc3ccccc23)c1 + CCCCNC(=O)OCC#CI [3-iodo-2-propynyl butylcarbamate (IPBC)] | 85.4
7 | Cc1[nH]c2ccc(C(=O)N(C)Cc3ccc(Br)s3)cc2c1C + CCCCNC(=O)OCC#CI [3-iodo-2-propynyl butylcarbamate (IPBC)] | 90.1
8 | Cc1nc2ccccc2n1CCNC(=O)c1ccccc1Cl + CCCCNC(=O)OCC#CI [3-iodo-2-propynyl butylcarbamate (IPBC)] | 98.2
9 | CSc1ccc(CCNC(=O)CN(C)c2nnc(N3CCCC3=O)s2)cc1 + CCCCNC(=O)OCC#CI [3-iodo-2-propynyl butylcarbamate (IPBC)] | 114
10 | Cc1cc(C)nc(NS(=O)(=O)c2ccc(-n3cnnn3)cc2)n1 + CCCCNC(=O)OCC#CI [3-iodo-2-propynyl butylcarbamate (IPBC)] | 100
11 | CNC(=O)NC(=O)CSc1nnc(Nc2ccc(Oc3ccccc3)cc2)s1 + CCCCNC(=O)OCC#CI [3-iodo-2-propynyl butylcarbamate (IPBC)] | 82.8
12 | CCOC(=O)c1c(C)c(C(=O)NCc2ccc3c(c2)OCO3)c(C)n1CC + CCCCNC(=O)OCC#CI [3-iodo-2-propynyl butylcarbamate (IPBC)] | 89.7
13 | CC1CCN(c2ccc(NC(=O)CSc3nc(C(C)C)n[nH]3)cc2)CC1 + CCCCNC(=O)OCC#CI [3-iodo-2-propynyl butylcarbamate (IPBC)] | 96
14 | O=C(Nc1nc[nH]n1)c1ccc(C(F)(F)F)cn1 + CCCCNC(=O)OCC#CI [3-iodo-2-propynyl butylcarbamate (IPBC)] | 96.3
15 | CSc1nnc(-c2cccnc2)n1CCO + CCCCNC(=O)OCC#CI [3-iodo-2-propynyl butylcarbamate (IPBC)] | 83
16 | Nc1nc(SCc2c(Cl)cccc2Cl)c2[nH]cnc2n1 + CCCCNC(=O)OCC#CI [3-iodo-2-propynyl butylcarbamate (IPBC)] | 102
17 | Cc1cc(N)n(S(=O)(=O)c2cn(C)nc2C)n1 + CCCCNC(=O)OCC#CI [3-iodo-2-propynyl butylcarbamate (IPBC)] | 104
18 | CCCC(=O)Nc1nc2cc(NS(=O)(=O)c3cccs3)ccc2s1 + CCCCNC(=O)OCC#CI [3-iodo-2-propynyl butylcarbamate (IPBC)] | 106
19 | Cc1nn(C)c(C)c1CNS(=O)(=O)c1ccc2c(c1)oc(=O)n2C + CCCCNC(=O)OCC#CI [3-iodo-2-propynyl butylcarbamate (IPBC)] | 85.6
20 | CC(=O)c1c(C)[nH]c(C(=O)N(Cc2nnc(-c3ccc(Cl)cc3)o2)C(C)C)c1C + CCCCNC(=O)OCC#CI [3-iodo-2-propynyl butylcarbamate (IPBC)] | 103
21 | COC(=O)CC(NC(=O)c1sc(-c2ccccn2)nc1C)c1ccc(OC)c(OC)c1 (stereo unspecified) + CCCCNC(=O)OCC#CI [3-iodo-2-propynyl butylcarbamate (IPBC)] | 103

Part of the list above, with tabs.
Row	SMILES	growth [%]
10	Cc1cc(C)nc(NS(=O)(=O)c2ccc(-n3cnnn3)cc2)n1 + CCCCNC(=O)OCC#CI [3-iodo-2-propynyl butylcarbamate (IPBC)]	100
11	CNC(=O)NC(=O)CSc1nnc(Nc2ccc(Oc3ccccc3)cc2)s1 + CCCCNC(=O)OCC#CI [3-iodo-2-propynyl butylcarbamate (IPBC)]	82.8
